From publication PMC9481933
No constants are given. Whether binding was seen depends on the method and setting. In cells and extracts the contact can be indirect. A yes stands for co-enrichment or nearness to the bait. Other partners may have been found. Tags and fused reporters may be left off the sequences shown.

Chains of the proteins cited; added tags and fusions are not shown.
UniProt P05198: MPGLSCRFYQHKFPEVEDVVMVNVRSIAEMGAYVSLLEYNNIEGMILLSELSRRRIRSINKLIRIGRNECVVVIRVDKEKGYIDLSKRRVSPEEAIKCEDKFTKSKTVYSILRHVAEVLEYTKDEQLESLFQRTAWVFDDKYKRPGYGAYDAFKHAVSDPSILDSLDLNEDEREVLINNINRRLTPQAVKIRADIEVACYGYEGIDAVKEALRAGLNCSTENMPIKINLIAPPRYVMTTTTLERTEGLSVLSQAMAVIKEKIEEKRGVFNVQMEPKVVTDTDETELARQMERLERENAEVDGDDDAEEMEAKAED
UniProt Q14318: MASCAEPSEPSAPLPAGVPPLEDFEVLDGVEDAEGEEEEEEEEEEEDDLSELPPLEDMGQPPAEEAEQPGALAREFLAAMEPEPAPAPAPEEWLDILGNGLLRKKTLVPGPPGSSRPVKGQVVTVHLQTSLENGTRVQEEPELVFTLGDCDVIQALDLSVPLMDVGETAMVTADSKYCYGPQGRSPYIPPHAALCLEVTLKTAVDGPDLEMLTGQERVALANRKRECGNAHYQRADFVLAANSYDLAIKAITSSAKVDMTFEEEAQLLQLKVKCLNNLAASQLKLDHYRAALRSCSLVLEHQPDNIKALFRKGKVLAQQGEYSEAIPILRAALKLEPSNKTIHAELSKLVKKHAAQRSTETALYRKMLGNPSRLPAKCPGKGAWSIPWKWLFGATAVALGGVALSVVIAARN
UniProt P08238: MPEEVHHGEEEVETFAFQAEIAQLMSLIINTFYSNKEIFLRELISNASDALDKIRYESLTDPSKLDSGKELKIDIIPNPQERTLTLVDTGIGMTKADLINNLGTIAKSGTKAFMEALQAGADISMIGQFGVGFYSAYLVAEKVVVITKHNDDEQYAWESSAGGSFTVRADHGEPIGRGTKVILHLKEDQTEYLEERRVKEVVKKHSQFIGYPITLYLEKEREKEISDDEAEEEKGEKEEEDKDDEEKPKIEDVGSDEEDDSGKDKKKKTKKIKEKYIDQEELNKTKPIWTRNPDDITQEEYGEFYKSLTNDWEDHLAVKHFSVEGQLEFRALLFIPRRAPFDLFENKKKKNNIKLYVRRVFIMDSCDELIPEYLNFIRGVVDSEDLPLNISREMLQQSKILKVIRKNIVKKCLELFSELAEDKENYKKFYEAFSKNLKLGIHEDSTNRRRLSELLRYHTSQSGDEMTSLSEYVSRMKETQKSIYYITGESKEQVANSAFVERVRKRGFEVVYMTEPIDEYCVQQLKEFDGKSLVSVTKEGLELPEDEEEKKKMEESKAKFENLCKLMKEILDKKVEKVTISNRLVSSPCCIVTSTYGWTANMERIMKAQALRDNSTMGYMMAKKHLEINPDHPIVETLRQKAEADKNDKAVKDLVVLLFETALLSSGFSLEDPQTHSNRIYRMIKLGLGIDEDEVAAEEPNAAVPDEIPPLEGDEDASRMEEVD
UniProt P46821: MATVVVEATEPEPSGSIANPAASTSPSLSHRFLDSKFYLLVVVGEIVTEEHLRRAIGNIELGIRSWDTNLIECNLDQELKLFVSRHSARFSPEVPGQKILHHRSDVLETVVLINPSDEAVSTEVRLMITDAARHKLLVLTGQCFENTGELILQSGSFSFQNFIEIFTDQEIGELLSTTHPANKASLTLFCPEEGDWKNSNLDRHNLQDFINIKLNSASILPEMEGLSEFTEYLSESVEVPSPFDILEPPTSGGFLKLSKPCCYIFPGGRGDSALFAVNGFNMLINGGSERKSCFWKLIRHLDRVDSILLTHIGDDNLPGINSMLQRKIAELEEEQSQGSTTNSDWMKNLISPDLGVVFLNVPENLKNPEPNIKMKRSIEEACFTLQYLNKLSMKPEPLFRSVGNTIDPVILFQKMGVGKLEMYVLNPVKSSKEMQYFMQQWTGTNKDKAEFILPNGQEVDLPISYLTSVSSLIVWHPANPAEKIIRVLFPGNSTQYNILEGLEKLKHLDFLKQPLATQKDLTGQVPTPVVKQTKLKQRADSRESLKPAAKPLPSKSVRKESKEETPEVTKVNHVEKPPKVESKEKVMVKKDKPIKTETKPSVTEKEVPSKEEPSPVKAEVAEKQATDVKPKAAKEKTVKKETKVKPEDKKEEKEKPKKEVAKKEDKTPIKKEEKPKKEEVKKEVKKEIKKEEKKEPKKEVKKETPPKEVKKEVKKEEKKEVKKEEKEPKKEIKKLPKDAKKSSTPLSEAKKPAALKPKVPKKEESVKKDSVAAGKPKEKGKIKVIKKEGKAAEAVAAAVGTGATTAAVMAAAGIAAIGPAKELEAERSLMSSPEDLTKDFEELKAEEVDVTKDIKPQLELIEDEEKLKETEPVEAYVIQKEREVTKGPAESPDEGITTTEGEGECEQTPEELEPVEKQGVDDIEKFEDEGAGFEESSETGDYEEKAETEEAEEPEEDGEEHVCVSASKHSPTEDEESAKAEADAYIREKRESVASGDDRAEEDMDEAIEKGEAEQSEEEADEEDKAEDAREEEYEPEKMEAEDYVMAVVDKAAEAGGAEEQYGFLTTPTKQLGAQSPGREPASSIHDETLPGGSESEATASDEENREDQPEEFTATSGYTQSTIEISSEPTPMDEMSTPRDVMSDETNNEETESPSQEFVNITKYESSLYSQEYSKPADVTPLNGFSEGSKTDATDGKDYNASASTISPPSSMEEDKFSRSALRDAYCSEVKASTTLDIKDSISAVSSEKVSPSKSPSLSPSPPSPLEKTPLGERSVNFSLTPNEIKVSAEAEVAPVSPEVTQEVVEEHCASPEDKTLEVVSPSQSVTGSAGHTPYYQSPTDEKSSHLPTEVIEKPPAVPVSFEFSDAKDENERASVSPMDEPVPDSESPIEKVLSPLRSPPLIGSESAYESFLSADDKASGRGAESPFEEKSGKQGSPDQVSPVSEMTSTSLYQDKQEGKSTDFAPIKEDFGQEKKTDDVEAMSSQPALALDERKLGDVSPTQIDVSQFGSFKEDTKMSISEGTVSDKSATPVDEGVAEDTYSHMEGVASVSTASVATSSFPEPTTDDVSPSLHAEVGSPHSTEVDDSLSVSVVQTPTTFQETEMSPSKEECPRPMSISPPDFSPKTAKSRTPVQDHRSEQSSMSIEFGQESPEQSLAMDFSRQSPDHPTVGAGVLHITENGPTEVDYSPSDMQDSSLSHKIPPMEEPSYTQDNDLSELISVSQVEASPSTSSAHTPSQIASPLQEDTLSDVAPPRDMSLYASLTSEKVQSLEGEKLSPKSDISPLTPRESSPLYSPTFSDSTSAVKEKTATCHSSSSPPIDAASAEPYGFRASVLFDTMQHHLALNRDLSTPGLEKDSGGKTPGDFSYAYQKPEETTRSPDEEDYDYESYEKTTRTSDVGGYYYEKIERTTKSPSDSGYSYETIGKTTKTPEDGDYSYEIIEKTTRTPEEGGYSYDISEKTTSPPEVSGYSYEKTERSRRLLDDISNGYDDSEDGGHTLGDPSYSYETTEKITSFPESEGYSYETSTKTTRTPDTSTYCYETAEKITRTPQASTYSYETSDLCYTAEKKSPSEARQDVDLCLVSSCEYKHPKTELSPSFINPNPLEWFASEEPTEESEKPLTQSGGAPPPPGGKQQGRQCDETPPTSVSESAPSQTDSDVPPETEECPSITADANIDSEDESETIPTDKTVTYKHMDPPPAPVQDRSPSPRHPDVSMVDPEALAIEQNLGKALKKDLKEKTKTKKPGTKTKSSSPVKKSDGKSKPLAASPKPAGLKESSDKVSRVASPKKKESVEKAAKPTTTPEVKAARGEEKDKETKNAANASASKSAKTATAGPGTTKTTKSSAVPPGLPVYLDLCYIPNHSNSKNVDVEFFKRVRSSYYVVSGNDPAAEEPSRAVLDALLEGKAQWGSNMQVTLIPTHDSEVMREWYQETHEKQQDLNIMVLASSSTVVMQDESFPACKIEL
UniProt P31350: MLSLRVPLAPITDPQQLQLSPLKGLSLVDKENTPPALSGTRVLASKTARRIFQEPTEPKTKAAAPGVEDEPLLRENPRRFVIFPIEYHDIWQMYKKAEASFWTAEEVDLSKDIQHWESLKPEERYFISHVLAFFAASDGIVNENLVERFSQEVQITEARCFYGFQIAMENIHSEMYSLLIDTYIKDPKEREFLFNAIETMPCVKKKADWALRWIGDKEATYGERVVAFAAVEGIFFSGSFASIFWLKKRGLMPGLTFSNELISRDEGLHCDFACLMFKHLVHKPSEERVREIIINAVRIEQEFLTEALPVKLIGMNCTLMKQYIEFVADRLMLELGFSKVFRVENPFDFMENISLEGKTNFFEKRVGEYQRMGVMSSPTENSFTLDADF
UniProt P63208: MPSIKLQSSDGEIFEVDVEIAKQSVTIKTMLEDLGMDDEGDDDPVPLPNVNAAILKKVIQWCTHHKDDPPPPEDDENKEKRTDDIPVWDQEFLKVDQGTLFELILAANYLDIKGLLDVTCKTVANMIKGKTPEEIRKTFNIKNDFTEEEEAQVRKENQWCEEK
UniProt Q9WUD1: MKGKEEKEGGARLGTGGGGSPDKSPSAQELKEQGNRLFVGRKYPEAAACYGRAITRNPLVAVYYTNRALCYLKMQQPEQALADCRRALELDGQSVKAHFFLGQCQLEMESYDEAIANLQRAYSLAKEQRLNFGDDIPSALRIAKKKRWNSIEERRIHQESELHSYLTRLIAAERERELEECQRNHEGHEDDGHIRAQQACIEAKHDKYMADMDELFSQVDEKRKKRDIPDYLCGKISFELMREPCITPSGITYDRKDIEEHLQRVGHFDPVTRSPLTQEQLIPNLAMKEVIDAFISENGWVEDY
UniProt Q9BVA1: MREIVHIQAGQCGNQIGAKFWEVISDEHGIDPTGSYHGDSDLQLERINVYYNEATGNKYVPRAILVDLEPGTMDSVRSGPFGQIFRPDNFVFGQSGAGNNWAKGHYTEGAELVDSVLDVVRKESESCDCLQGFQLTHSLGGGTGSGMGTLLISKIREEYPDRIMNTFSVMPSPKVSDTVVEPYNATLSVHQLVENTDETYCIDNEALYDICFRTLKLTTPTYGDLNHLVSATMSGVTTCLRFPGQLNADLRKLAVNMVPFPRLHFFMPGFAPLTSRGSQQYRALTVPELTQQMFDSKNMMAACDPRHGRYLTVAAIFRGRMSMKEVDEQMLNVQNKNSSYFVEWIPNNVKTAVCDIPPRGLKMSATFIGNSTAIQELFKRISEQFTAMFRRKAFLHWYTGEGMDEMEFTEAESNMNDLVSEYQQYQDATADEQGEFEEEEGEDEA
UniProt Q64727: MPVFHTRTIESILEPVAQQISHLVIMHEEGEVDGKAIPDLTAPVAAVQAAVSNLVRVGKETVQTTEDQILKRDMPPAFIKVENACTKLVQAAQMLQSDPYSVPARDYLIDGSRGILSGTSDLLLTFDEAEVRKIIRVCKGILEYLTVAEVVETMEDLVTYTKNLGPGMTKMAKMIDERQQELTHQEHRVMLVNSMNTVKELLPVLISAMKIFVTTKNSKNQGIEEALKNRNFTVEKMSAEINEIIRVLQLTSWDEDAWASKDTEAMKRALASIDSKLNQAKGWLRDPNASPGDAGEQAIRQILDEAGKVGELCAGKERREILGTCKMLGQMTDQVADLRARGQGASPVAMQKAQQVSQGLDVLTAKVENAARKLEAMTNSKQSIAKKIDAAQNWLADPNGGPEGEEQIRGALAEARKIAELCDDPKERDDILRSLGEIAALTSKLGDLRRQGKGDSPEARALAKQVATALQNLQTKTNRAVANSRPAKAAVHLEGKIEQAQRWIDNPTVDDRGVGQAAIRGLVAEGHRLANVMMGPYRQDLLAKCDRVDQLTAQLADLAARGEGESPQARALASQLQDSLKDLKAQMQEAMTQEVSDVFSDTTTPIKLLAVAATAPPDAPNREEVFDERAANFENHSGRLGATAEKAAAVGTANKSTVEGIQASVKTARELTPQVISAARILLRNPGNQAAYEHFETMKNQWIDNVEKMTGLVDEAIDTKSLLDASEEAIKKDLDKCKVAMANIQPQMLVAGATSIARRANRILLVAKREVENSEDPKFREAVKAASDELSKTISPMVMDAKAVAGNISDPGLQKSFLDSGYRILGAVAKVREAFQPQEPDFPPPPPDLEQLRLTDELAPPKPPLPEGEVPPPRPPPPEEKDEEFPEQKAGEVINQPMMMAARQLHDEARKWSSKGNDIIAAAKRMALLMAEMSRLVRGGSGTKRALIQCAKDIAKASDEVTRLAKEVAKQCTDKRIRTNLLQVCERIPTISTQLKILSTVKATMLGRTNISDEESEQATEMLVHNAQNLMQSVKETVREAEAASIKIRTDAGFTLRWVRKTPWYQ

Tests used:
[1] = molecular target: T1, myc-APEX2-Cyclin-F, in SH-SY5Y cells (UniProt P41002); assay: proximity labelling; myc-APEX2-CCNF stably expressed in N2a or SH-SY5Y cells; 500 uM biotin-phenol 30 min, 1 mM H2O2 pulse 1 min; streptavidin pull-down, MS; controls: omission of biotin-phenol or APEX2-TBC1D7; triplicates
T1 sequence: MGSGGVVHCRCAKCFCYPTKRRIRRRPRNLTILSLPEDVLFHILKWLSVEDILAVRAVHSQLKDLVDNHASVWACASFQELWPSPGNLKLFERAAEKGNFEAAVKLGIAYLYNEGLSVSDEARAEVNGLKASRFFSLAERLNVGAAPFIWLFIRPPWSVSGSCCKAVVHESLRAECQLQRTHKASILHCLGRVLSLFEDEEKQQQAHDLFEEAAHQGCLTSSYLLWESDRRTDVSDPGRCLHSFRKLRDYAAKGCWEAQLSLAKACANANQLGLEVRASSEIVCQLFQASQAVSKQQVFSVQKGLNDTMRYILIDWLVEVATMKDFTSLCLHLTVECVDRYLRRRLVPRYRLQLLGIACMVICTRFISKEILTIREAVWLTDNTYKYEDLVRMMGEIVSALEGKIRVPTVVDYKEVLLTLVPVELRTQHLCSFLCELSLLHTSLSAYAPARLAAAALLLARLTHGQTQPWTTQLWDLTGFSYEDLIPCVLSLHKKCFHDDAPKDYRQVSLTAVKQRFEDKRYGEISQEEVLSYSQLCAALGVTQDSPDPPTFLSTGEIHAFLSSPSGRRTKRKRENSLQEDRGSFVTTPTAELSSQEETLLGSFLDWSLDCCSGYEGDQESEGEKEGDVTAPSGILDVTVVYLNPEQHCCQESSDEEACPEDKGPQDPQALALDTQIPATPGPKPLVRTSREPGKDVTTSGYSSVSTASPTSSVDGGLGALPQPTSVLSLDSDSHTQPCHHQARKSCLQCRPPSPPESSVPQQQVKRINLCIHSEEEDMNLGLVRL

[2] = molecular target: T2, HA-FLAG-tagged Cyclin-F (wild type), in SH-SY5Y cells (UniProt P41002); assay: affinity purification with mass spectrometry; HA-FLAG-CCNF stably expressed in N2a or SH-SY5Y cells; anti-HA affinity resin, elution with HA peptide, trypsin, MS; control HA-FLAG-TBC1D7 IP; quadruplicates
T2 sequence: T1 sequence

[3] = molecular target: T3, myc-APEX2-Cyclin-F, in N2a cells (UniProt P41002); assay: proximity labelling; myc-APEX2-CCNF stably expressed in N2a or SH-SY5Y cells; 500 uM biotin-phenol 30 min, 1 mM H2O2 pulse 1 min; streptavidin pull-down, MS; controls: omission of biotin-phenol or APEX2-TBC1D7; triplicates
T3 sequence: T1 sequence

[4] = molecular target: T4, HA-FLAG-tagged Cyclin-F (wild type), in N2a cells (UniProt P41002); assay: affinity purification with mass spectrometry; HA-FLAG-CCNF stably expressed in N2a or SH-SY5Y cells; anti-HA affinity resin, elution with HA peptide, trypsin, MS; control HA-FLAG-TBC1D7 IP; quadruplicates
T4 sequence: T1 sequence

## EIF2S1 (endogenous) (from UniProt P05198 1-315)
[1]
  binding: binds

## EIF3L (endogenous) (from UniProt Q9Y262 1-564)
[1]
  binding: binds

## FKBP8 (endogenous) (from UniProt Q14318 1-412)
[2]
  binding: binds

## HSP90AB1 (endogenous) (from UniProt P08238 1-724)
[2]
  binding: binds
[1]
  binding: binds

## MAP1B (endogenous) (from UniProt P46821 1-2468)
[1]
  binding: binds

## Myh10 (endogenous) (from UniProt Q61879 1-1976)
[3]
  binding: binds

## RRM2 (endogenous) (from UniProt P31350 1-389)
[2]
  binding: binds
[1]
  binding: binds

## SKP1 (endogenous) (from UniProt P63208 1-163)
[2]
  binding: binds
[1]
  binding: binds

## STIP1 (endogenous) (from UniProt P31948 1-543)
[1]
  binding: binds

## Stub1 (endogenous, mouse) (from UniProt Q9WUD1 1-304)
[4]
  binding: binds

## TUBB2B (endogenous) (from UniProt Q9BVA1 1-445)
[2]
  binding: binds

## Tubb4b (endogenous) (from UniProt P68372 1-445)
[4]
  binding: binds

## VCP (endogenous) (from UniProt P55072 1-806)
[1]
  binding: binds

## Vcl (endogenous) (from UniProt Q64727 1-1066)
[3]
  binding: binds

B1: Dnajb12 (endogenous, mouse) (protein, UniProt Q9QYI4 1-376)
chain: MESNKDEAERCISIALKAIQSNQPERALRFLEKAQRLYPTPRVSALIESLNQKPQSTGDHPQPTDTTHTTTKKAGGTETPSANGEAGGGESAKGYTSEQVAAVKRVKQCKDYYEILGVSRSASDEDLKKAYRKLALKFHPDKNHAPGATEAFKAIGTAYAVLSNPEKRKQYDQFGDDKSQAARHGHSHGDFHRGFEADISPEDLFNMFFGGGFPSSNVHVYSNGRMRYTYQQRQDRRDNQGDGGLGVFVQLMPILILILVSALSQLMVSSPPYSLSPRPSVGHIHKRVTDHLNVAYYVADTFSEEYTGSSLKTVERNVEDDYIANLRNNCWKEKQQKEGLLYRARYFGDTDMYHRAQKMGTPSCNRLSEVQASLHG
[4]
  binding: binds

B2: DNAJC7 (endogenous, human) (protein, UniProt Q99615 1-494)
chain: MAAAAECDVVMAATEPELLDDQEAKREAETFKEQGNAYYAKKDYNEAYNYYTKAIDMCPKNASYYGNRAATLMMLGRFREALGDAQQSVRLDDSFVRGHLREGKCHLSLGNAMAACRSFQRALELDHKNAQAQQEFKNANAVMEYEKIAETDFEKRDFRKVVFCMDRALEFAPACHRFKILKAECLAMLGRYPEAQSVASDILRMDSTNADALYVRGLCLYYEDCIEKAVQFFVQALRMAPDHEKACIACRNAKALKAKKEDGNKAFKEGNYKLAYELYTEALGIDPNNIKTNAKLYCNRGTVNSKLRKLDDAIEDCTNAVKLDDTYIKAYLRRAQCYMDTEQYEEAVRDYEKVYQTEKTKEHKQLLKNAQLELKKSKRKDYYKILGVDKNASEDEIKKAYRKRALMHHPDRHSGASAEVQKEEEKKFKEVGEAFTILSDPKKKTRYDSGQDLDEEGMNMGDFDPNNIFKAFFGGPGGFSFEASGPGNFFFQFG
[2]
  binding: binds

B3: DNAJC18 (endogenous) (protein, UniProt Q9H819 1-358)
chain: MAATLGSGERWTEAYIDAVRRNKYPEDTPPESHDPCGCCNCMKAQKEKKSENEWTQTRQGEGNSTYSEEQLLGVQRIKKCRNYYEILGVSRDASDEELKKAYRKLALKFHPDKNCAPGATDAFKAIGNAFAVLSNPDKRLRYDEYGDEQVTFTAPRARPYNYYRDFEADITPEELFNVFFGGHFPTGNIHMFSNVTDDTYYYRRRHRHERTQTQKEEEEEKPQTTYSAFIQLLPVLVIVIISVITQLLATNPPYSLFYKSTLGYTISRETQNLQVPYFVDKNFDKAYRGASLHDLEKTIEKDYIDYIQTSCWKEKQQKSELTNLAGLYRDERLKQKAESLKLENCEKLSKLIGLRRGG
[2]
  binding: binds

B4: Kif24 (endogenous) (protein, UniProt Q6NWW5 1-1356)
chain: MASWLYECLCEAELAQYYPHFTALGLQKIDELAKVTMKDYSRLGVHDMNDRKRLFQLIKIIKIMQEEDKALGIPEHPLQASSLYTKPREFRSGPRRQLHFDSPSASKDKMANNETGSLSNFSVDEQKSTYLKVLEHMLPDDSQCQTKIRAPDASAADASMQTETNAPLFSSNYFSPQLGNCDIPVIQRVSHVSGYNYGIPHSCVRQITSENPWTEMEKIRVCVRKRPLGVREVRRGEVNVITVEDKETLLVHEKKEAVDLTQYILQHVFYFDEVFGEACSNQDVYLKTAHPLIQHIFNGGSATCFAYGQTGAGKTYTMIGTHQNPGLYALAAKDIFRQLKVSQSRRNLFVWISFYEIYCGQLYDLLNRRKRLFAREDSKHVVQIAGLRELQVDSVELLLQVILKGSKERSTGATGVNADSSRSHAIIQIQIKDSAKRTFGRISFIDLAGSERAADARDSDRQTKMEGAEINQSLLALKECIRALDQEHTHTPFRQSKLTQVLKDSFIGNAKTCMIANISPSHIATEHTLNTLRYADRVKELKKGVKCCASATSQNQTSANASPKRIQSSPVTLPGDKCSPKKVKLGLQQSLTVAPGPTKVKAHPLASHVPNVPFTSGPKTPGKKSSSRGSPTPEWDMKASPRKGTTRSGHSIKKGAESAPLCSEKSQIGSKIAVGWEGRASDPGEGLLRVRLPTRGKKVQPVQPVQKQLLSRPRLLANSHHLEATQDSKVGTPAGLAPEAWTNPILQQKEREEHLRFYHQQFQQPPLLKQKLNYQPLQRLLCQHRPSEGRLQSETGFPLHSNPENRDGAQAEDLDDSDFSEDSFSHGSSQPAMKQGSTALERSGSSFFLHQDREHSPEEQAAERQQCLLFSSETDGSKKRPADSWVYSRDPIISHRRGALSQSHSPSMVCPDWSKEEDSASSGPSPKDNRAQKPSSSQVDFVHHQKPGEAQVSDIRLEAFTSEVPEQAEGSLSSPSPENGLSFPLSHVAVSGSPDQRDRVCTPLREVSENRVTHTPGRVNSSTPFQEDSGEQIQMCSANASGLMAPLTMSLLETPCHEDLSSLEQIAQDGAGYGFMAEIVGGPAAGHTVPSYDQEAALPVSSATECLWLSSSPPDNRPSGDLPALSPSPIHQHSPDKLPGREAYQTRRPILLPENHMGSKLYDDRAEETELGGSLTFPRKPSSNIHAGVPYSTPFLTSCTGSSNGVGRPWAQERKHPTGVSCQELVSSTDSNKPHYNEDIAWLRHRPISRCLDSDSPVVPSCSSKALRTYCPLTPEQAQQVIIRAHKEQLDEMAELDLKEETLMTQMDSNDFEDFVTQLDEIMALKSRCIQSLRSQLQLYLTSHRPAAAPERTVVS
[4]
  binding: binds

B5: CDC6 (endogenous) (protein, UniProt Q99741 1-560)
chain: MPQTRSQAQATISFPKRKLSRALNKAKNSSDAKLEPTNVQTVTCSPRVKALPLSPRKRLGDDNLCNTPHLPPCSPPKQGKKENGPPHSHTLKGRRLVFDNQLTIKSPSKRELAKVHQNKILSSVRKSQEITTNSEQRCPLKKESACVRLFKQEGTCYQQAKLVLNTAVPDRLPAREREMDVIRNFLREHICGKKAGSLYLSGAPGTGKTACLSRILQDLKKELKGFKTIMLNCMSLRTAQAVFPAIAQEICQEEVSRPAGKDMMRKLEKHMTAEKGPMIVLVLDEMDQLDSKGQDVLYTLFEWPWLSNSHLVLIGIANTLDLTDRILPRLQAREKCKPQLLNFPPYTRNQIVTILQDRLNQVSRDQVLDNAAVQFCARKVSAVSGDVRKALDVCRRAIEIVESDVKSQTILKPLSECKSPSEPLIPKRVGLIHISQVISEVDGNRMTLSQEGAQDSFPLQQKILVCSLMLLIRQLKIKEVTLGKLYEAYSKVCRKQQVAAVDQSECLSLSGLLEARGILGLKRNKETRLTKVFFKIEEKEIEHALKDKALIGNILATGLP
[2]
  binding: binds
[1]
  binding: binds

B6: Dnajc7 (endogenous, mouse) (protein, UniProt Q9QYI3 1-494)
chain: MAATAECDVVMAATEPELLEDEDAKREAESFKEQGNAYYAKKDYNEAYNYYTKAIDMCPNNASYYGNRAATLMMLGRFREALGDAQQSVRLDDSFVRGHLREGKCHLSLGNAMAACRSFQRALELDHKNAQAQQEFKNANAVMEYEKIAEVDFEKRDFRKVVFCMDRALEFAPACHRFKILKAECLAMLGRYPEAQFVASDILRMDSTNADALYVRGLCLYYEDCIEKAVQFFVQALRMAPDHEKACVACRNAKALKAKKEDGNKAFKEGNYKLAYELYTEALGIDPNNIKTNAKLYCNRGTVNSKLRQLEDAIEDCTNAVKLDDTYIKAYLRRAQCYMDTEQFEEAVRDYEKVYQTEKTKEHKQLLKNAQLELKKSKRKDYYKILGVDKNASEDEIKKAYRKRALMHHPDRHSGASAEVQKEEEKKFKEVGEAFTILSDPKKKTRYDSGQDLDEEGMNMGDFDANNIFKAFFGGPGGFSFEASGPGNFYFQFG
[4]
  binding: binds
